Results: patent publication US6858382 (GENERAL HOSPITAL, dated 2005)
No constants are given. Whether binding was seen depends on the method and setting. Some entries that bind do so weakly or less than the wild type.

The chains behind the UniProt entries cited, without tags or fusion partners. Where a name states a change or a piece, a line headed by the entry shows the natural chain unless it says otherwise.
UniProt P0A7C2: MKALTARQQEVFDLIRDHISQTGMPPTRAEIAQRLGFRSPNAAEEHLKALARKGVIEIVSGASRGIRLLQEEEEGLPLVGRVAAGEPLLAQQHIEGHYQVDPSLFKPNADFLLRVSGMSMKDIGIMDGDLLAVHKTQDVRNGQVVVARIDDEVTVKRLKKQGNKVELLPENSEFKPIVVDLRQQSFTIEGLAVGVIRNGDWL

Molecular target: LexA-Max (UniProt P0A7C2)
Experiment: yeast two-bait interaction trap, LexAop-LacZ reporter

B1: B42-Mxi1 (other, UniProt P50539 1-228, looked up, not shown: large carriers)
chain: MERVKMINVQRLLEAAEFLERRERECEHGYASSFPSMPSPRLQHSKPPRRLSRAQKHSSGSSNTSTANRSTHNELEKNRRAHLRLCLERLKVLIPLGPDCTRHTTLGLLNKAKAHIKKLEEAERKSQHQLENLEREQRFLKWRLEQLQGPQEMERIRMDSIGSTISSDRSDSEREEIEVDVESTEFSHGEVDNISTTSISDIDDHSSLPSIGSDEGYSSASVKLSFTS
notes: Yeast two-hybrid prey, used as a positive control with Max
Q: For B1, which binding is on record?
A: binds
